Patent US9439976B2, “Compositions and methods for using cathepsin E cleavable substrates” (The Methodist Hospital System, priority 2013, dated 2016)
Part of at least one peptide drawing is inferred or uncertain, most often the ends. Where a SMILES comes first, the peptide text is derived from it. The star is where a group is joined. X1 = O=C(O)CCC(=O)CN*

Sequences of proteins named here, by UniProt entry; tags and fusion partners are left off. Residues count along the entry.
UniProt P07339, 65-412: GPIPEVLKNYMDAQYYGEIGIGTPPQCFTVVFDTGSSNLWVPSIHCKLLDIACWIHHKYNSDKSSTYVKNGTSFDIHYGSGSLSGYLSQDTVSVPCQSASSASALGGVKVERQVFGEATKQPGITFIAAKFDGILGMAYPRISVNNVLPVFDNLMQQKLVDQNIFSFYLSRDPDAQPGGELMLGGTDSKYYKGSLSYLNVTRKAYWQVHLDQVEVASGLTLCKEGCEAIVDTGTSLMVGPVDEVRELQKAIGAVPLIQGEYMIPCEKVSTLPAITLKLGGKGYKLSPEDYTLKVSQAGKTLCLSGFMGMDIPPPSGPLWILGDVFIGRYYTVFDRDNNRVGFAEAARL

Columns and labels:
Cath E = molecular target: T1, Cath E (Homo sapiens, UniProt P14091); test: Enzymatic cleavage susceptibility by LC-MS, Cath E; type: biochemical; settings: Cath E 50 pmol, 50 mM sodium acetate, 1 hour
T1 sequence (P14091 54-396): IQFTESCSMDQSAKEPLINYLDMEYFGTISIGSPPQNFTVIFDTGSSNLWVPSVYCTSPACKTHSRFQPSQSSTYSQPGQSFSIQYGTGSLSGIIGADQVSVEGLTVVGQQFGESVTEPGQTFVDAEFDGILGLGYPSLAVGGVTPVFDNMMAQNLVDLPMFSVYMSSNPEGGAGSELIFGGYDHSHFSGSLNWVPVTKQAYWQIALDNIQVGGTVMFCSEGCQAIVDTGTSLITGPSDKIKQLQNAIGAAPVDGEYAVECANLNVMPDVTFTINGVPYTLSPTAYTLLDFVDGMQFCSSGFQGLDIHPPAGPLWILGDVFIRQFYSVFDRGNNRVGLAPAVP

Cath B = Cath B (Homo sapiens, UniProt P07858); test: Enzymatic cleavage susceptibility by LC-MS, Cath B; type: biochemical; settings: higher concentration 100 pmol
Cath D = Cath D (Homo sapiens, UniProt P07339); test: Enzymatic cleavage susceptibility by LC-MS, Cath D; type: biochemical; settings: higher concentration 100 pmol
MPanc96-CTSE cells [1] = type: cell-based, human; settings: 0.1 μM prodrug 30 minutes, light 10 J/cm2
MPanc96-CTSE cells [2] = type: cell-based, human; settings: light 10 and 15 J/cm^2
Protocol: To determine the number of viable cells after light treatment, a homogeneous colorimetric method, the MTS Cell cytotoxicity assay (Cell Titer 96® Aqueous, Promega, Madison, Wis.) was used. MPanc96-CTSE and MPanc96-FG30 (2×10^4) cells were incubated with various concentrations (0.1, 0.5, 1, and 5 μM) of the 5-ALA prodrug for 30 minutes, followed by treatment with a range of light doses (2.5, 5, 10, and 15 J/cm^2) and incubated overnight at 37° C. and 5% CO2 in 96-well plates. Cells treated only with light or the 5-ALA prodrug were used as negative controls. […] The formation of colored formazan was measured directly in 96-well assay plates at 490 nm absorbance without additional processing. […] After PDT, MPanc96-CTSE cells were washed with PBS buffer, treated with 1 μL YO-PRO-1 and PI stock solution per milliliter medium and incubated on ice for 25 minutes, followed by fluorescence imaging using an inverted epifluorescence microscope. […]
To quantitate cell viability upon photodynamic treatment with the 5-ALA prodrug, PDAC cells were subjected to homogeneous, colorimetric MTS cytotoxicity assay. […] After incubating PDAC cells with the tetrazolium compound, living PDAC cells in culture were quantified directly by measuring the absorbance of the produced formazan product at 490 nm.

MPanc96-FG30 cells [3] = test: Phototoxicity by cell morphology imaging after PDT, parent cells; type: cell-based, human; settings: MPanc96-FG30, 0.1 μM prodrug, light 10 J/cm2, compared to MPanc96-CTSE
[4] = test system: PDAC (p53 conditional deletion/LSL-KrasG12D/Pdx1-Cre); test: In vivo photodynamic therapy, TUNEL staining of PDAC pancreas in genetically engineered mice; design: species or system mouse; settings: mice with PDAC, 1 mg 5-ALA equivalent/kg i.v., 10 J/cm^2 light at 652 nm 1 hour after injection, tissue 24 hours later
Protocol: All animal studies were performed in compliance with the approved animal protocols and guidelines of Institutional Animal Care and Use Committee of University of Texas MD Anderson Cancer Center. […] Littermates without PDAC served as controls. LSL-KRasG12D, p53-floxed, and Pdx-1-Cre genetic mice were obtained from the Mouse Models for Human Cancer Consortium Repository (Rockville, Md.). Mice were divided into three groups of five transgenic mice with PDAC tumors and three normal littermate controls. Mice were injected with a single dose of saline, free 5-ALA, or the 5-ALA prodrug (1 mg 5-ALA equivalent/kg, 50 μL) intravenously through the tail vein using a 30 gauge needle. Mice were incubated for 60 minutes in a full metabolically active environment and anesthetized by intraperitoneal injection of sodium pentobarbital, at a dose of 50-90 mg/kg diluted to 6 mg/ml. The pancreas was exposed through a left abdominal incision (1 cm, laparotomy) and treated with a 10-J/cm^2 dose of light using a diode laser (652 nm) and incidence fluence rate of 50 mW/cm^2 for 3.5 minutes. After PDT, the pancreas was carefully returned to the peritoneal cavity and the abdomen was closed. One day after light treatment, animals were sacrificed and the pancreases were harvested for subsequent evaluation. […]

MPanc96-CTSE cells [5] = type: cell-based, human; settings: MPanc96-CTSE after PDT with prodrug
MPanc96-FG30 cells [6] = test: MTS cell cytotoxicity assay after PDT, parent cells; type: cell-based, human; settings: MPanc96-FG30, 0.1 μM prodrug and rising concentrations, light 2.5 J/cm^2

In the case of CC(C)C[C@H](NC(=O)[C@H](CO)NC(=O)[C@H](Cc1ccccc1)NC(=O)CNC(=O)[C@H](C)NC(=O)[C@H](CCC(N)=O)NC(=O)[C@@H](N)CCCNC(=N)N)C(=O)NCC(=O)CCC(=O)O [5-ALA prodrug, H-Arg-Gln-Ala-Gly-Phe-Ser-Leu-5-ALA-OH] (H-RQAGFSL-X1), the “Cleavage of the prodrug to peptide fragment and free 5-ALA (LC-MS)” value (Cath E) is reported as “only tested protease capable of cleaving”, the “Cleavage at the link between 5-ALA and the peptide substrate (LC-MS)” value (Cath B) is reported as “no sign of cleavage” and the “Cleavage at the link between 5-ALA and the peptide substrate (LC-MS)” value (Cath D) is reported as “no sign of cleavage”. For the same compound, the “Cell death / morphology after light treatment” value (MPanc96-CTSE cells [1]) was “significant cell death”, the “Cellular toxicity (MTS) at higher light doses” value (MPanc96-CTSE cells [2]) was “no appreciable enhancement of cellular toxicity” and the “Morphological changes after light exposure” value (MPanc96-FG30 cells [3]) was “to a lesser extent”. For the same compound, the “Apoptosis in PDAC tissue sections (TUNEL)” value [4] was “multiple apoptotic cells”, the “Pathway of cellular damage (YO-PRO-1 / PI staining)” value (MPanc96-CTSE cells [5]) was “apoptosis is the main pathway” and the “Cell viability (MTS)” value (MPanc96-FG30 cells [6]) was “slow and steady decrease in cell viability”.
